Primary screen of a compound library

Chains of the proteins cited; added tags and fusions are not shown. Residues count along the entry.
UniProt P9WFT3, whole entry: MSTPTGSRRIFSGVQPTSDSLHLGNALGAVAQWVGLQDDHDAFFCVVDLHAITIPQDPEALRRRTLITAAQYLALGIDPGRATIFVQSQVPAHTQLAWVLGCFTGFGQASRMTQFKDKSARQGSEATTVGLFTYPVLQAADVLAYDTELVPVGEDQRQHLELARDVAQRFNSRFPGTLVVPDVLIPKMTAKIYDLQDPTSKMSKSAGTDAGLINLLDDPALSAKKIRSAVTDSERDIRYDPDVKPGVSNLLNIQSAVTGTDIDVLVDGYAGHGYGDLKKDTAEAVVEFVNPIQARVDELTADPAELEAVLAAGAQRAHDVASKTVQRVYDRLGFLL
UniProt P9WNZ1, whole entry: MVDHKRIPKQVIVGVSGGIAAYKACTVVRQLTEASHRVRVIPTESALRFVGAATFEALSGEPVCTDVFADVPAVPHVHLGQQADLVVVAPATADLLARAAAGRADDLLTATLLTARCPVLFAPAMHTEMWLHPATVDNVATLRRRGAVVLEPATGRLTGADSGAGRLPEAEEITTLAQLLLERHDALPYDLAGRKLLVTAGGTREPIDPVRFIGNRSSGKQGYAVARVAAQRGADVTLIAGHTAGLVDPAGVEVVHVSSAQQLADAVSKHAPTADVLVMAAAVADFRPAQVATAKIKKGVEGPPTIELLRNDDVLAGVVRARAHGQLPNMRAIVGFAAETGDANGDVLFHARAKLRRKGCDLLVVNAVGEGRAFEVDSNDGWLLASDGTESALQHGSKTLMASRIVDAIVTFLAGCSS
UniProt A4I591, 1-473: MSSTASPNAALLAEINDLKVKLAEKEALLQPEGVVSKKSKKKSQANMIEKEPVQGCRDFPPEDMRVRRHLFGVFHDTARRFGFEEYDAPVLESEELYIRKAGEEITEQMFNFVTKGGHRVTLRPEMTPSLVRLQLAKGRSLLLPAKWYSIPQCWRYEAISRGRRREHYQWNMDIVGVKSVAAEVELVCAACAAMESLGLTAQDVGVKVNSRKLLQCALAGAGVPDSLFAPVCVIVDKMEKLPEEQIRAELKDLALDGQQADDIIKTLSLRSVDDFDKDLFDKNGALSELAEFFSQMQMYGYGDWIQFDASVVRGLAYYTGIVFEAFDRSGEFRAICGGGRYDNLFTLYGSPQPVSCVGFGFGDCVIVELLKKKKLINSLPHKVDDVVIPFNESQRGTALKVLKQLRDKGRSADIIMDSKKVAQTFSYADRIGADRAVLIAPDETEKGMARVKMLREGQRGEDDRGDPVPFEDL
UniProt I6X8D2, whole entry: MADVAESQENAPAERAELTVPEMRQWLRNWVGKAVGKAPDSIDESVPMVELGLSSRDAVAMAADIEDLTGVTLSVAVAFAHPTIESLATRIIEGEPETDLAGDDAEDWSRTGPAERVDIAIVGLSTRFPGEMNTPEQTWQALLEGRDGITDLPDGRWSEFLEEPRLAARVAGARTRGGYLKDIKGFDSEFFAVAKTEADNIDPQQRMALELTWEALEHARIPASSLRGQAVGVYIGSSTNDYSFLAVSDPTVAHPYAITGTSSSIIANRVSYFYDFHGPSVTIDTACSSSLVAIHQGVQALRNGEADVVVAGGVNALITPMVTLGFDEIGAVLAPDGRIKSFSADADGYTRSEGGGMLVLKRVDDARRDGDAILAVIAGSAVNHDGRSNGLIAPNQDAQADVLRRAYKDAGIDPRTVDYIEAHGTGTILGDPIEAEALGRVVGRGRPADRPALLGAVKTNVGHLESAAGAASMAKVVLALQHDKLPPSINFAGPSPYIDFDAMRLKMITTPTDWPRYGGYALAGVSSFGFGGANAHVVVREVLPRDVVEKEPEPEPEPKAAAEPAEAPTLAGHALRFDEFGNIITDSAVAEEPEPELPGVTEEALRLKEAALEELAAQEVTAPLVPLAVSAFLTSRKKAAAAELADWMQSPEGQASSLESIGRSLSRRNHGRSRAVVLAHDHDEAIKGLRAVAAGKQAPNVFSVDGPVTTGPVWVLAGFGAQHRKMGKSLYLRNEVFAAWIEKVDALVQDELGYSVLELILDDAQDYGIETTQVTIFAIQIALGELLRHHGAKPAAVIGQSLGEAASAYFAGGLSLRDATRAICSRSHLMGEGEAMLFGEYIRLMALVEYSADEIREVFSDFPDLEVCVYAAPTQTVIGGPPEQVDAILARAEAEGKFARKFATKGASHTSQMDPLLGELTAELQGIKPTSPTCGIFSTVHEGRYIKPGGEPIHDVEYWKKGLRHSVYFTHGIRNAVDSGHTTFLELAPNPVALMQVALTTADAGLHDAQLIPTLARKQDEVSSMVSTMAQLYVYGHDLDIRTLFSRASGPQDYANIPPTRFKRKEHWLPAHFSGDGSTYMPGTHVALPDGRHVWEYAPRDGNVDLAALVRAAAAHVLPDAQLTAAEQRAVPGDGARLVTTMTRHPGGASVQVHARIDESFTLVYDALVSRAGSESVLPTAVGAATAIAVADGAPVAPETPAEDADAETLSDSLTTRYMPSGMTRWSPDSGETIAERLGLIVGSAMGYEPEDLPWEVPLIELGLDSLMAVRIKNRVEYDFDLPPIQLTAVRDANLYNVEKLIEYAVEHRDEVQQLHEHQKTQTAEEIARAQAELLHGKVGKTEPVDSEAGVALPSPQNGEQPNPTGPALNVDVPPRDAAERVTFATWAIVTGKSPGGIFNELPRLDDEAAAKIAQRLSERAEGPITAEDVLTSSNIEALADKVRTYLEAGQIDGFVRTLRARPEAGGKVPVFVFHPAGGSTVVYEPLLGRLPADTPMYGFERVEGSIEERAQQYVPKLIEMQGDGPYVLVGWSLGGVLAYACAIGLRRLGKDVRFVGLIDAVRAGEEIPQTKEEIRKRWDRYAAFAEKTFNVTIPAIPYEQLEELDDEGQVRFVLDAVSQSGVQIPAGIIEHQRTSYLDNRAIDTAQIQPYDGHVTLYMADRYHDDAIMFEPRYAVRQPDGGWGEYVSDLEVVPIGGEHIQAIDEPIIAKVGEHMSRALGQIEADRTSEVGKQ

The values are deposited in ChEMBL (CHEMBL3988442, “University of Dundee, Small-Polar-MMV Screening Library” (2021)).

Results are given as percent effect.
The record does not define 0% and 100%; most values in the screen are far below 50% and negative numbers occur (in some assays of this library far below -100).
This is an unselected part of the compounds tested.

MtTrpRS: 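Enzyme assay of tryptophanyl-tRNA synthetase; the read-out is not stated. Target: Tryptophan-tRNA ligase, Mycobacterium tuberculosis (UniProt P9WFT3). Concentration: 10 µM. Higher most likely means stronger inhibition; the record gives no direction and few retests gave an IC50. Of about 65,000 compounds tested this way, about 64 (0.098%) reached 50% or more in at least one test.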
CoaBC: 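Coenzyme A biosynthesis protein CoaBC, Mycobacterium tuberculosis (UniProt P9WNZ1). Enzyme assay of CoaBC with a phosphate dye (Biomol Green) read at 650 nm. Concentration: 30 µM. Higher reads as stronger inhibition, judged from the few compounds that gave an IC50. Most strong results did not repeat in a second test. Size under these conditions: about 67,000 compounds, about 40 of them at 50% or above in at least one test.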
LiHisRS: 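Enzyme assay of histidyl-tRNA synthetase; the read-out is not stated. Target: Histidine-tRNA ligase, Leishmania infantum (UniProt A4I591). Compounds at 30 µM. The record gives no direction; compounds that gave an IC50 in retests scored well above the rest, so higher reads as stronger inhibition. The assay is labelled LdHisRS but filed under L. infantum. About 69,000 compounds were tested under these conditions; 0.6% (about 410) showed 50% or more at least once.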
Pks13 thioesterase: 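Enzyme assay of the thioesterase domain of polyketide synthase 13; the read-out is not stated. Target: Polyketide synthase Pks13, Mycobacterium tuberculosis (UniProt I6X8D2). Compounds at 30 µM. The record gives no direction; the compounds picked for IC50 retests had high values, so higher reads as stronger inhibition. About 67,000 compounds were tested under these conditions; 0.46% (about 300) showed 50% or more at least once.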

CCS(=O)(=O)NC(CCSC)C(=O)Nc1ccc(C)cc1C (stereo not given) read MtTrpRS: -2.185%; CoaBC: 0.3841%; LiHisRS: 2.469%; Pks13 thioesterase: 2.679%.
NCc1ccnc(Oc2ccccc2)c1 read MtTrpRS: 2.601%; CoaBC: 2.133%; LiHisRS: 59.04%; Pks13 thioesterase: 38%.
CCc1nsc(N2CCN(C(=O)c3ccnc(N(C)C)c3)CC2)n1 read MtTrpRS: -1.144%; CoaBC: 5.556%; LiHisRS: 4.464%; Pks13 thioesterase: -9.906%.
CC(C)(CNc1c(C#N)cnc2ccc(Cl)cc12)C(N)=O read MtTrpRS: -1.943%; CoaBC: 0.3822%; LiHisRS: 2.073%; Pks13 thioesterase: -14.03%.
Cc1cccc(-c2noc(CN3CCC(N4CCNC4=O)CC3)n2)c1 read MtTrpRS: 6.475%; CoaBC: 0.9639%; LiHisRS: 10.96%; Pks13 thioesterase: -11.46%.
CCOc1ccc(C(F)(F)F)cc1NCc1cc(C)on1 read MtTrpRS: -0.06345%; CoaBC: 2.978%; LiHisRS: 12.77%; Pks13 thioesterase: -18.26%.
O=C(C1CCC1)N1CCN(c2snc3ccccc23)CC1 read MtTrpRS: -1.462%; CoaBC: 9.399%; LiHisRS: -2.703%; Pks13 thioesterase: 22.31%.
O=C(NC1CCN(c2ncccc2F)C1)c1cccc(-n2ccnn2)c1 (stereo not given) read MtTrpRS: 3.419%; CoaBC: 2.335%; LiHisRS: 13.51%; Pks13 thioesterase: -3.384%.
Cc1cnn(C2CN(CC(=O)NCCc3ccsc3)C2)c1 read MtTrpRS: -3.241%; CoaBC: -19.17%; LiHisRS: 20.18%; Pks13 thioesterase: -11.06%.
CCOc1ccccc1CNC(=O)NCC(c1cnn(C)c1)N(C)C (stereo not given) read MtTrpRS: -0.3632%; CoaBC: -9.274%; LiHisRS: 7.018%; Pks13 thioesterase: -15.17%.
CC(C)(C)n1ncc(C(=O)NCCCC(N)=O)c1C(F)(F)F read MtTrpRS: -3.981%; CoaBC: 3.509%; LiHisRS: 18.33%; Pks13 thioesterase: -34.04%.
COCC(=O)NCc1cc(=O)n2c(n1)CN(CC1CCOC1)CCC2 (stereo not given) read MtTrpRS: 3.923%; CoaBC: 4.627%; LiHisRS: -1.504%; Pks13 thioesterase: -25.8%.
O=S1(=O)C[C@@H]2[C@H](C1)N(Cc1ncc[nH]1)CCN2CCCc1ccccc1 read MtTrpRS: -0.1649%; CoaBC: 13.26%; LiHisRS: 11.32%; Pks13 thioesterase: 5.077%.
Cc1cnn(CCNCc2c(C)nn(Cc3ccccc3)c2C)c1 read MtTrpRS: 0.07886%; CoaBC: 7.905%; LiHisRS: 11.86%; Pks13 thioesterase: -31.05%.
CCn1ccnc1CN1CCCN(C(=O)c2ccnn2C)CC1 read MtTrpRS: -7.904%; CoaBC: 1.79%; LiHisRS: 7.339%; Pks13 thioesterase: -15.89%.
O=S(=O)(c1ccc(F)cc1)N1CC[C@H]2[C@H]1CCN2c1ncccn1 read MtTrpRS: -4.36%; LiHisRS: 20.51%; Pks13 thioesterase: -32.69%.
Cc1ccc(S(=O)(=O)NCCc2nnc[nH]2)c2cccnc12 read MtTrpRS: -0.2172%; CoaBC: 8.678%; LiHisRS: 13.39%; Pks13 thioesterase: -5.09%.
Cc1nc(C)n(CC2CN(CCc3ccccc3Cl)CCO2)n1 (stereo not given) read MtTrpRS: -4.933%; CoaBC: -0.2445%; LiHisRS: 8.065%; Pks13 thioesterase: -4.47%.
CN(C)c1nccc(NCc2cc(-c3cccs3)n[nH]2)n1 read CoaBC: 3.494%; LiHisRS: -2.857%; Pks13 thioesterase: -10%.
O=C(Nc1ccccc1)c1ccc2c(c1)C1(CCCCC1)CN2 read MtTrpRS: -4.824%; CoaBC: 1.97%; LiHisRS: 30%; Pks13 thioesterase: -541.2%.
CC(=O)N1CCC(C)(c2cc(C(=O)NCC(C)(C)C)nc(C)n2)CC1 read MtTrpRS: 26.82%; CoaBC: 8.134%; LiHisRS: 7.194%; Pks13 thioesterase: -17.82%.
CN1CC(NC(=O)Cc2csc(C(C)(C)C)n2)CCC1=O (stereo not given) read MtTrpRS: 5.615%; CoaBC: 6.211%; LiHisRS: -1.587%; Pks13 thioesterase: -21.7%.

The last 2 entries again:

compound,MtTrpRS,CoaBC,LiHisRS,Pks13 thioesterase
CC(=O)N1CCC(C)(c2cc(C(=O)NCC(C)(C)C)nc(C)n2)CC1,26.82%,8.134%,7.194%,-17.82%
CN1CC(NC(=O)Cc2csc(C(C)(C)C)n2)CCC1=O (stereo not given),5.615%,6.211%,-1.587%,-21.7%